Screening data

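A counter-screen in EP4-overexpressing cells measuring cyclic AMP with a time-resolved FRET kit under weak PGE2 stimulation. Compounds were tested at 20 µM final. A low (about EC15) PGE2 dose was present. Percent cAMP induction as a fraction of the 1 µM PGE2 response, averaged over three replicates; a higher value means more cAMP.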

Values are in %. Common to all entries: measured here: EP4 receptor counter-screen. Part of the compounds only, not a random draw; the main read-out is not listed here.

SMILES	condition	cAMP induction (%)
CCOC(=O)CCCCCCCCCCCCC1C=CCC1 (stereo not given)	percent of 1 uM PGE2 response; plus low (about EC15) PGE2 agonist	-0.3367
Cn1c(=O)[nH]c(=O)c2c1nc(CN1CCN(c3cccc(Cl)c3)CC1)n2CCCc1ccccc1	percent of 1 uM PGE2 response; plus low (about EC15) PGE2 agonist	-1.067
CSc1nnc(-c2ccc(F)cc2)o1	percent of 1 uM PGE2 response; plus low (about EC15) PGE2 agonist	-0.5767
CCOC(=O)c1c(-c2ccc(C)o2)csc1NC(=O)CN1CCCCC1	percent of 1 uM PGE2 response; plus low (about EC15) PGE2 agonist	-21.51
CC(Sc1ccc2ccccc2n1)C(=O)O (stereo not given)	percent of 1 uM PGE2 response; plus low (about EC15) PGE2 agonist	83.4
Fc1ccc(Sc2nc(-c3ccccc3)nnc2C(F)(F)F)cc1	percent of 1 uM PGE2 response; plus low (about EC15) PGE2 agonist	9.627
COc1cccc(C(=O)Nc2cccc(OCC(=O)O)c2)c1	percent of 1 uM PGE2 response; plus low (about EC15) PGE2 agonist	9.913
O=C(/C(=C/O)N=Nc1ccccc1)c1ccc(Cl)cc1	percent of 1 uM PGE2 response; plus low (about EC15) PGE2 agonist	-13.08
C/C=C/Cn1c(SCc2ccc(C)cc2)nc2c1c(=O)[nH]c(=O)n2C	percent of 1 uM PGE2 response; plus low (about EC15) PGE2 agonist	-4.33
CC(C)c1nc(Cl)c(C#N)c2c1CSC(C)(C)C2	percent of 1 uM PGE2 response; plus low (about EC15) PGE2 agonist	10.65
CCOC(=O)C1=C(CC)Nc2ccccc2N=C1NC(=O)c1oc2ccccc2c1C	percent of 1 uM PGE2 response; plus low (about EC15) PGE2 agonist	-18.03
CCOC(=O)CC(=O)CSc1ncnc2c1oc1ccccc12	percent of 1 uM PGE2 response; plus low (about EC15) PGE2 agonist	59.33
O=c1[nH]c2ccc(Cl)cc2c(-c2ccccc2)c1N1CCN(c2ccccn2)CC1	percent of 1 uM PGE2 response; plus low (about EC15) PGE2 agonist	-7.253
C#CCSc1nc(Cc2ccc(Cl)cc2)nc2ccccc12	percent of 1 uM PGE2 response; plus low (about EC15) PGE2 agonist	-0.9267
CC(C)CNC(=O)C(=O)NNC(=O)c1ccco1	percent of 1 uM PGE2 response; plus low (about EC15) PGE2 agonist	-5.997
COc1ccccc1NC(=O)c1c(C)oc2c1CCCC2	percent of 1 uM PGE2 response; plus low (about EC15) PGE2 agonist	10.1
c1ccc(CCc2cccnc2)nc1	percent of 1 uM PGE2 response; plus low (about EC15) PGE2 agonist	2.81
Cc1cccc(C(=O)Nc2cccc(OCC(=O)O)c2)c1	percent of 1 uM PGE2 response; plus low (about EC15) PGE2 agonist	7.627
Nn1cnc2c(c1=O)C1(CCCCC1)Cc1ccccc1-2	percent of 1 uM PGE2 response; plus low (about EC15) PGE2 agonist	1.593
Brc1ccccc1Cn1c(-c2cscn2)nc2ccccc21	percent of 1 uM PGE2 response; plus low (about EC15) PGE2 agonist	-13.29

The last 2 entries again:

SMILES,condition,cAMP induction (%)
Nn1cnc2c(c1=O)C1(CCCCC1)Cc1ccccc1-2,percent of 1 uM PGE2 response; plus low (about EC15) PGE2 agonist,1.593
Brc1ccccc1Cn1c(-c2cscn2)nc2ccccc21,percent of 1 uM PGE2 response; plus low (about EC15) PGE2 agonist,-13.29

From PubChem BioAssay record AID1080 (Emory University Molecular Libraries Screening Center, 2008).